Results published in article PMC6925144, “A prospective compound screening contest identified broader inhibitors for Sirtuin 1” (Scientific Reports, 2019).
The full ranking holds about 3,200 compounds; the median of “TSA(with NAD+) / Primary screening (TSA) / delta Tm (K)” is about -0.04, and the highest 2% start at about 0.37. The list shows a part of the results.

By UniProt entry, the sequences of proteins in these tests, tags left out. Residues count along the entry.
UniProt Q96EB6, 2-747 limits assumed: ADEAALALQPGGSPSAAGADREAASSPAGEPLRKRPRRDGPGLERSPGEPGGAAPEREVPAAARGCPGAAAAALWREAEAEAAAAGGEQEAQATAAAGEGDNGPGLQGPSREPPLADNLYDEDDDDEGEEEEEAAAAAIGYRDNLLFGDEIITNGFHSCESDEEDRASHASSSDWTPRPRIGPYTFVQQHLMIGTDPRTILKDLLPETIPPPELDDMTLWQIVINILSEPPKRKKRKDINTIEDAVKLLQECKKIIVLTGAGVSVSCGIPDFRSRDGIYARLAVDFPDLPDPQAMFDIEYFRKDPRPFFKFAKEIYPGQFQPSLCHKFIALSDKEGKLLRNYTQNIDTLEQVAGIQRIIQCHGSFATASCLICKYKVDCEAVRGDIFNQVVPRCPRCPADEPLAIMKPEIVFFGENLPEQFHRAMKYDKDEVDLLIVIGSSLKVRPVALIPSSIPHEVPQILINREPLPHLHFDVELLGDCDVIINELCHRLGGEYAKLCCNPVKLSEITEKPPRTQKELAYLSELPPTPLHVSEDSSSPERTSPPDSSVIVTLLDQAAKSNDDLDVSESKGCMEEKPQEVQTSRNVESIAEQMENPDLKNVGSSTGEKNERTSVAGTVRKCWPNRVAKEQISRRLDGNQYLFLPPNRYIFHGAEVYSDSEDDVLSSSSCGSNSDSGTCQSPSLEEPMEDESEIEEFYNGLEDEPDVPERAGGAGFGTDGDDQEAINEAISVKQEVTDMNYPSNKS

Molecular target: NAD-dependent deacetylase Sirtuin 1 (human, UniProt Q96EB6)
Assay: primary screen, delta tm
Design: single well (n = 1, as 'the same TSA')
Conditions: 10 µM

Structure (SMILES)	TSA(with NAD+) / Primary screening (TSA) / delta Tm (K)
O=C(Nc1cccc(S(=O)(=O)NCc2ccco2)c1)c1ccccc1SCC(=O)N1CCCC1	-0.05
COc1cccc(N2CCN(CCC(=O)Nc3ccc(C(N)=O)cc3)CC2)c1	-0.18
CCn1cnnc1-c1cccc(NC(=O)c2cc(C(N)=O)cn2C)c1	-0.11
COc1ccccc1NS(=O)(=O)c1ccc(NC(=O)CNC(=O)C23CC4CC(CC(C4)C2)C3)cc1	0.08
Cc1cccc(N2CCN(C(=O)c3ccc(C(C)(C)C)cc3)CC2)c1C	0.02
Cc1nc(N2CCN(Cc3ccncc3)CC2)c2c(-c3cccs3)csc2n1	-0.01
O=c1oc(-c2ccc(F)cc2)nn1Cc1nc2ccccc2s1	-0.11
O=C1c2ccccc2NC(c2ccc(Cl)cc2)N1C1CC1 (stereo not shown)	-0.06
CC1CCCN(C(=O)c2ccc(/C=C/c3ccc4ccccc4n3)cc2)C1 (stereo not shown)	-0.24
COc1ccc(N2C(=O)C(=O)N(CC(=O)Nc3ccccc3SCc3ccccc3)C2=O)cc1	0.06
O=C(CSc1ccccc1)Nc1cc2c(=O)[nH]cnc2cc1F	-0.01
Cc1cnn(C2CCCN(C(=O)c3ccc(C(N)=S)cc3)C2)c1 (stereo not shown)	-0.11
Cc1nc(CN2CCN(S(=O)(=O)c3cc(C(N)=O)n(C)c3)CC2)cs1	-0.05
CC(C)N(CC(=O)Nc1cc(C(N)=O)cc(C(N)=O)c1)Cc1ccccc1	-0.01
O=C(COC(=O)c1ccc(CNS(=O)(=O)c2ccc(F)c(Cl)c2)cc1)c1ccccc1	0.01
O=C(Cc1cccnc1)Nc1ccccc1N1CCC(CO)CC1	-0.14
Cc1ccn2c(=O)cc(Cn3cnc4c(oc5ccccc54)c3=O)nc2c1	-0.12
Cc1ccc(C23CC4CC(CC(C(=O)N5CCN(S(=O)(=O)c6ccccc6)CC5)(C4)C2)C3)cc1	-0.02
O=C(Nc1ccccc1O)C1CCN(c2ncnc3scc(-c4ccc(F)cc4)c23)CC1	0.05
Cc1nc2c3ccccc3nc(N3CCC(C4(C)NC(=O)NC4=O)CC3)n2n1 (stereo not shown)	-0.01

Structure (SMILES)	TSA(with NAD+) / Primary screening (TSA) / delta Tm (K)
N#C/C(=C\c1ccc(-c2ccc(Cl)c(C(F)(F)F)c2)o1)C(N)=S	0.25
C/C(=N/N)c1ccc2c(c1)-c1ccccc1C2	-0.14
O=C1NC(=S)NC(=O)C1=NNc1ccc(OC(F)F)cc1	-0.01
O=C(O)[C@H](O)[C@@H](O)C(=O)O	-0.11
CCOc1ccc(C2C(C(=O)c3cccc(OC)c3)=C(O)C(=O)N2CCCN2CCOCC2)cc1 (stereo not shown)	-0.11
COc1ccc(NC(=O)CSc2nnc(Nc3ccc(SC(F)F)cc3)s2)cc1OC	0.28
C#CCCCN	0.09
CC(C)COc1ccc(C(=O)C2=C(O)C(=O)N(CCN3CCOCC3)C2c2cccnc2)cc1 (stereo not shown)	-0.01
Cc1cc(NC(=O)CCc2nc3ccccc3[nH]2)ccc1N1CCCC1	-0.15
O=S(=O)(/C=C/c1ccccc1)N1CCN(c2ncnc3sc4c(c23)CCCCC4)CC1	0.07
CC(C)Oc1ccc(C(=O)C2=C(O)C(=O)N(CCCN3CCOCC3)C2c2cccs2)cc1 (stereo not shown)	0.01
COc1ccc(C(=O)C2=C(O)C(=O)N(CCCN3CCOCC3)C2c2ccco2)cc1Cl (stereo not shown)	-0.11
Cc1ccnc(NC(=O)C2CCN(c3nc(C)nc4scc(-c5cccs5)c34)CC2)c1	-0.15
CC(=C/c1ccccc1)/C=N/NC(=O)c1cc(-c2ccc(C)cc2)n[nH]1	1.11
CC(C)Cc1ccc(C(=O)C2CCN(C(=O)c3cnc4ccccc4n3)CC2)cc1	-0.03
O=C(NCc1ccc(-n2cnc3ccccc32)nc1)c1ccc2[nH]cnc2c1	0.02
Cc1cc(N(C)C)n2nc(C(F)(F)F)c(-c3ccccc3)c2n1	-0.05
ClC1=Nc2c(cnn2-c2ccccc2)CN1	-0.09
O=C(O)c1cccc(CNC(=O)c2ccc3[nH]ccc3c2)c1	-0.11
Cc1ccc(C23CC4CC(CC(C(=O)N5CCN(S(=O)(=O)Cc6ccccc6)CC5)(C4)C2)C3)cc1	-0.08

Among those listed so far, two have a COOH group:
Structure (SMILES)	TSA(with NAD+) / Primary screening (TSA) / delta Tm (K)
O=C(O)[C@H](O)[C@@H](O)C(=O)O	-0.11
O=C(O)c1cccc(CNC(=O)c2ccc3[nH]ccc3c2)c1	-0.11

Following part.

Structure (SMILES)	TSA(with NAD+) / Primary screening (TSA) / delta Tm (K)
N#Cc1ccc(NCC2CCN(c3ncnc4ccsc34)C2)nc1 (stereo not shown)	-0.08
Cc1cc(C)c2c(n1)sc1c(N3CCN(CCO)CC3)ncnc12	0.18
COc1ccc(C)c2c1N(C(=O)c1cccc(-n3cnnn3)c1)CCC2	-0.13
CS(=O)(=O)c1cccc(C(=O)N(Cc2ccccc2)c2ccccc2)c1	0.11
CCS(=O)(=O)NC(C)C(=O)O (stereo not shown)	0.08
Cc1ccsc1CN(C)C(=O)CCc1nc2ccccc2n(CCc2ccccc2)c1=O	0.06
CCCn1nnnc1CN1C(=O)NC(Cc2c[nH]c3ccccc23)C1=O (stereo not shown)	-0.21
O=c1[nH]c2sc3c(c2c2nc(-c4ccc(Br)cc4)nn12)CCCCC3	0.13
Cc1ccc(C(=O)C2=C(O)C(=O)N(CCCN3CCOCC3)C2c2cccc(Br)c2)cc1 (stereo not shown)	0.05
COCc1cc(NCc2cnn(Cc3ccccc3)c2)n2ncnc2n1	0.03
CCC(=O)N(c1nnc(SCC(=O)c2ccc(-c3ccccc3)cc2)s1)C1CC1	-0.02
Cn1ccc(CC(=O)Nc2nc(-c3cc(C(N)=O)co3)cs2)n1	-0.15
CCOc1ccc(NC(=O)CN(C)Cc2ccc(C(=O)Nc3ccccc3)cc2)cc1OCC	-0.02
CCC(C)c1ccc(NC(=O)C(C#N)C(=O)c2cncc(F)c2)cc1 (stereo not shown)	0.18
Nc1ncc(Cc2ccc(Br)cc2)s1	-0.11
CC(CNC(=O)C1CCCN1C(=O)c1ccc2c(c1)OCO2)N(C)C (stereo not shown)	-0.16
Cc1ccccc1CN1CCN(C(C)C(=O)Nc2sccc2C(N)=O)CC1 (stereo not shown)	-0.09
O=C(OCc1cccc(C(F)(F)F)c1)c1cnc2sccn2c1=O	-0.09
